Measurements from PubChem BioAssay AID2685 (National Center for Advancing Translational Sciences (NCATS), 2010).
Some of the results follow. The main result of the screen is listed elsewhere. These columns were measured beside it and carry no call. Compounds called inactive in the main read-out are mostly missing here. The note in brackets gives the kind of curve behind each potency; many fits are weak.

Test: qHTS Assay for Lipid Storage Modulators in Drosophila S3 Cells;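 for cell number change: cells counted by Cell Tracker Red CMTPX staining in the red channel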
Details: BODIPY lipid droplet fluorescence, 18-24 h; for cell number change: measured here: cell count max response, cells fed with added oleic acid
Summary of the method: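 Laser-scanning cytometry quantifies lipid droplet accumulation (500–530 nm total intensity; droplet/cell object ratio) in oleic acid-fed (400 uM added) Drosophila S3 cells treated with a concentration series. 20 uM Triacsin C defined 100% inhibition.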

[1] = measured here: lipid fluorescence (Fed channel) AC50, cells fed with added oleic acid
[2] = measured here: cell number channel AC50, cells fed with added oleic acid

SMILES: O=C(Nc1cccc(S(=O)(=O)NC2=NCCCCC2)c1)c1cc(-c2ccccc2Cl)nc2ccccc12
- cell number change: -21.2%

SMILES: COC(=O)c1cccc(NC(=O)CN(c2ccc3c(c2)OCO3)S(C)(=O)=O)c1C
- cell number change: -22.5%
- AC50 [1]: 0.146 µM [rising, full curve, poor fit]

SMILES: Oc1ccccc1CNc1cnc2ccccc2c1
- cell number change: -30%
- AC50 [1]: 23.1 µM [falling, single point]

SMILES: CN(Cc1ccccc1)C(NC(=O)c1ccco1)C(Cl)(Cl)Cl (stereo unspecified)
- cell number change: -5.81%
- AC50 [2]: 0.00461 µM [falling, full curve, poor fit]

SMILES: CCOC(=O)C1CCCN(S(=O)(=O)CCNC(=O)c2ccc(F)cc2)C1 (stereo unspecified)
- cell number change: -37.5%
- AC50 [2]: 0.0731 µM [falling, full curve, poor fit]
- AC50 [1]: 0.58 µM [falling, single point]

SMILES: COc1ccc(S(=O)(=O)Nc2ccccc2C(=O)NCc2ccco2)cc1
- cell number change: 60.3%
- AC50 [2]: 29.1 µM [rising, single point]
- AC50 [1]: 0.517 µM [falling, single point]

SMILES: CCOC(=O)N1CCN(C(=O)c2ccc(N(Cc3ccc(C)cc3)S(C)(=O)=O)cc2)CC1
- cell number change: 33.1%
- AC50 [2]: 6.51 µM [rising, partial curve, poor fit]
- AC50 [1]: 3.66 µM [rising, single point]

SMILES: Cn1c2cc(Br)sc2c2cnn(Cc3c(F)cccc3F)c(=O)c21
- cell number change: 41.8%
- AC50 [2]: 0.00411 µM [rising, full curve, poor fit]
- AC50 [1]: 0.0517 µM [rising, full curve]

SMILES: Cc1ccc(N(C)C(=O)N2CCN(S(=O)(=O)c3ccc(C)c(C)c3)CC2)cc1
- AC50 [1]: 3.66 µM [rising, partial curve]

SMILES: COc1ccc(C(=O)NC2CC2)cc1OC1CCN(Cc2ccc(F)cc2F)CC1
- cell number change: -17.8%
- AC50 [2]: 0.326 µM [rising, single point]

SMILES: O=C(CCCCn1c(=O)[nH]c2ccccc2c1=O)NCCc1c[nH]c2ccccc12
- cell number change: 8.78%
- AC50 [1]: 0.731 µM [rising, full curve, poor fit]

SMILES: O=C(NC(=S)Nc1ccc(Cc2ccncc2)cc1)c1ccccc1
- cell number change: 9.36%
- AC50 [1]: 3.26 µM [rising, full curve]

SMILES: Cc1cc(C(=O)NCCCc2ccccc2)no1
- cell number change: 0.703%
- AC50 [1]: 10.3 µM [rising, partial curve]

SMILES: CC1(C)Oc2ccc(C(=O)N3CCc4ccccc43)cc2N(CC(=O)N2CCCC2)C1=O
- cell number change: 30.1%
- AC50 [2]: 5.8 µM [rising, full curve, poor fit]

SMILES: N#CC1(NC(=O)CN2C(=O)NC(c3ccccc3)(c3ccccc3)C2=O)CCCC1
- cell number change: -8.27%
- AC50 [1]: 29.1 µM [rising, single point]

SMILES: COCCNC(=O)c1ccc2c3n(nc2c1)-c1ccc(Cl)cc1CO3
- cell number change: 14.8%
- AC50 [1]: 0.517 µM [rising, full curve, poor fit]

SMILES: Cc1ccc(S(=O)(=O)NCc2ccccc2)cc1
- cell number change: -28.8%
- AC50 [1]: 6.51 µM [falling, single point]

SMILES: COc1ccc2[nH]c(=O)c(CN(Cc3nnnn3Cc3ccc(F)cc3)CC3CCCO3)cc2c1 (stereo unspecified)
- cell number change: 9.93%
- AC50 [1]: 6.51 µM [rising, single point]

SMILES: CC(C)c1ccc(C2(C)NC(=O)N(CC(=O)NC3(C#N)CCCC3)C2=O)cc1 (stereo unspecified)
- cell number change: -4.13%
- AC50 [1]: 0.206 µM [falling, partial curve, poor fit]

SMILES: CN(C(=O)c1ccc(NC(=O)Cc2ccc(NC(=O)C3CCCN(C(=O)C4CCCC4)C3)cc2)cc1)C1CC1 (stereo unspecified)
- cell number change: -22%
- AC50 [1]: 0.00461 µM [rising, full curve, poor fit]

SMILES: O=C(Nc1cc([N+](=O)[O-])ccc1F)c1cccs1
- cell number change: 20.9%
- AC50 [1]: 20.6 µM [rising, partial curve, poor fit]

SMILES: Cc1ccc(-c2nc3ccccc3s2)cc1NC(=S)NC(=O)/C=C/c1ccco1
- cell number change: 9.76%
- AC50 [2]: 3.66 µM [falling, single point]

SMILES: CC(C)c1ccc(NNC(=O)C2CCC2)cc1
- cell number change: 26.3%
- AC50 [2]: 0.82 µM [falling, single point]

SMILES: Nc1cc(N2CCOCC2)c(Cl)cc1[N+](=O)[O-]
- cell number change: -21.1%
- AC50 [1]: 4.61 µM [rising, single point]

SMILES: COc1ccc(S(=O)(=O)N(C)CC(=O)NC2CC2)cc1
- cell number change: -5.54%
- AC50 [1]: 2.59 µM [falling, full curve, poor fit]

SMILES: CCC(Sc1nnc(C)c(=O)[nH]1)C(=O)Nc1cccc2ccccc12 (stereo unspecified)
- cell number change: 1.25%
- AC50 [1]: 1.16 µM [falling, single point]

SMILES: Cc1cc(C)nc(OC(=O)c2c(Cl)cc(Cl)cc2Cl)n1
- AC50 [1]: 18.4 µM [rising, partial curve]

SMILES: O=C(CCC(=O)N1CCN(S(=O)(=O)c2ccccc2Cl)CC1)c1ccccc1
- cell number change: 13.1%
- AC50 [1]: 2.06 µM [rising, partial curve]

SMILES: COC(=O)c1ccccc1NC(=O)CS(=O)(=O)Cc1nc(-c2ccc(C)cc2)oc1C
- cell number change: 10.8%
- AC50 [1]: 6.51 µM [rising, partial curve, poor fit]

SMILES: Cc1cc(NC(=O)c2cccnc2)ccc1NC(=O)c1cc2ccccc2o1
- cell number change: 6.87%
- AC50 [1]: 29.1 µM [rising, single point]

SMILES: CCN(CC)CC(=O)Nc1ccc([N+](=O)[O-])cc1
- cell number change: -18.2%
- AC50 [1]: 4.61 µM [falling, single point]

SMILES: Cc1ccc(NC(=O)Cn2c(=O)cnc3ccccc32)cc1S(=O)(=O)N1CCOCC1
- cell number change: 41.5%
- AC50 [2]: 25.9 µM [rising, partial curve, poor fit]

SMILES: CC(C)C(NS(=O)(=O)c1cccs1)C(=O)Nc1nc(C(C)(C)C)cs1 (stereo unspecified)
- cell number change: -6.03%

SMILES: COc1ccc2c(c1)C(NS(=O)(=O)OCC(Cl)(Cl)Cl)CCC2 (stereo unspecified)
- cell number change: 7.78%

SMILES: c1cncc(-c2nnc(SCc3nc4ccccc4[nH]3)o2)c1
- AC50 [2]: 0.13 µM [rising, full curve, poor fit]
- AC50 [1]: 0.13 µM [rising, full curve, poor fit]

SMILES: COC(=O)c1cccc(NC(=O)CSc2nnc(COc3ccc(C#N)cc3)n2-c2ccccc2)c1
- cell number change: 31.2%
- AC50 [2]: 20.6 µM [rising, single point]

SMILES: Cc1c(C(=O)N2CCC(C)CC2)oc2ccc(S(=O)(=O)N3CCC4(CC3)OCCO4)cc12
- cell number change: 23.2%
- AC50 [1]: 0.116 µM [falling, full curve, poor fit]

SMILES: COc1ccc(N(Cc2cc(=O)[nH]c3ccccc23)C(=O)CCl)cc1
- cell number change: -2.05%
- AC50 [1]: 32.6 µM [falling, single point]

SMILES: CC(=O)N(CN1C(=O)C2C3C=CC(C3)C2C1=O)c1cccc(Cl)c1 (stereo unspecified)
- cell number change: 17.5%
- AC50 [1]: 23.1 µM [rising, single point]

SMILES: O=C(O)CC1S/C(=N/N=C/C2CC=CCC2)NC1=O (stereo unspecified)
- cell number change: -35.3%
- AC50 [2]: 0.82 µM [falling, full curve]
- AC50 [1]: 14.6 µM [falling, partial curve]

SMILES: CC(=O)c1cccc(NC(=O)c2cc(S(=O)(=O)N3CCOCC3)cs2)c1
- cell number change: -45.6%
- AC50 [2]: 1.84 µM [falling, partial curve]
- AC50 [1]: 11.6 µM [falling, partial curve]

SMILES: COc1cc(/C=C/C(=O)/C=C(O)/C=C/c2ccc(O)c(OC)c2)ccc1O
- cell number change: -64.3%
- AC50 [2]: 14.6 µM [falling, partial curve]
- AC50 [1]: 20.6 µM [falling, single point]

SMILES: CS(=O)(=O)N1CCN(c2ccc([N+](=O)[O-])cc2C(F)(F)F)CC1
- cell number change: 22.6%

SMILES: COc1ccccc1NC(=O)C(C)N1CCN(C/C=C/c2ccccc2)CC1 (stereo unspecified)
- cell number change: -18.3%

SMILES: O=C(COc1ccc(-n2cnnn2)cc1)NC(=O)NCc1ccccc1
- cell number change: 5.45%
- AC50 [1]: 2.31 µM [rising, partial curve]

SMILES: Nc1ccc(S(=O)(=O)Nc2nc3ccccc3o2)cc1
- cell number change: 8.5%
- AC50 [1]: 16.4 µM [rising, partial curve, poor fit]

SMILES: CCOC(=O)C1CCCN(c2c(N3CCC(N4CCCCC4)CC3)c(=O)c2=O)C1 (stereo unspecified)
- cell number change: 12.9%
- AC50 [1]: 29.1 µM [rising, partial curve, poor fit]

SMILES: Cc1ccc(NC(=O)CCC(=O)NNC(=O)Cc2ccccc2)cc1C
- cell number change: 30.2%
- AC50 [2]: 29.1 µM [rising, single point]

SMILES: Cc1ccc(S(=O)(=O)N2CCCCC2C(=O)N2CCN(c3ccccc3F)CC2)cc1 (stereo unspecified)
- cell number change: -4.28%
- AC50 [1]: 6.51 µM [rising, single point]

SMILES: Cc1cccc(NC(=O)Nc2cnccn2)c1
- cell number change: 9.2%
- AC50 [1]: 6.51 µM [rising, single point]

SMILES: O=C(Oc1ccc(-c2csnn2)cc1)c1cccs1
- cell number change: -34.4%
- AC50 [2]: 18.4 µM [falling, single point]
- AC50 [1]: 8.2 µM [falling, partial curve]

SMILES: Cc1cc(-c2n[nH]c(=S)n2/N=C/c2ccc(Cl)c([N+](=O)[O-])c2)n[nH]1
- cell number change: 6.58%
- AC50 [1]: 29.1 µM [rising, single point]

SMILES: CCCCCCCC1=CC2=CC(=O)C(C)(OC(C)=O)C(=O)C2=CN1CCc1ccccc1 (stereo unspecified)
- cell number change: 20.5%
- AC50 [1]: 16.4 µM [rising, single point]

SMILES: COc1ccc(OC)c(CCNC(=O)c2nn(C)c3c2CS(=O)(=O)c2ccccc2-3)c1
- cell number change: -6.93%
- AC50 [1]: 29.1 µM [falling, single point]

SMILES: O=C(CSc1ccc(Cl)cc1)NC(=O)NC1CCCC1
- cell number change: 195%
- AC50 [2]: 29.1 µM [rising, partial curve]
- AC50 [1]: 18.4 µM [rising, partial curve]

SMILES: COc1ccc(C2NCCC3(O)CCCCC23)c(OC)c1OC (stereo unspecified)
- cell number change: 8.14%
- AC50 [1]: 23.1 µM [falling, single point]

SMILES: COc1ccc(NC2CCCN(C(=O)c3ccc(OC)cc3OC)C2)cc1 (stereo unspecified)
- cell number change: 4.95%
- AC50 [1]: 0.651 µM [falling, partial curve, poor fit]
